Measurements published in PubChem BioAssay (NCATS).
The inconclusive results got no clear call from the source; some entries with a clear call stand among them for comparison. A potency beside an inconclusive call is a rough fit, not a confirmed value. Activity calls are given as the source filed them. The call rests on the fitted dose curve; in most records, active means well fitted inhibition curve with a large enough effect; inconclusive means small, poorly fitted or top-dose-only effect; inactive means no such curve, though single readings can be large or run the other way.

The chains behind the UniProt entries cited, without tags or fusion partners. Where a name states a change or a piece, a line headed by the entry shows the natural chain unless it says otherwise.
UniProt P07947, whole entry, looked up: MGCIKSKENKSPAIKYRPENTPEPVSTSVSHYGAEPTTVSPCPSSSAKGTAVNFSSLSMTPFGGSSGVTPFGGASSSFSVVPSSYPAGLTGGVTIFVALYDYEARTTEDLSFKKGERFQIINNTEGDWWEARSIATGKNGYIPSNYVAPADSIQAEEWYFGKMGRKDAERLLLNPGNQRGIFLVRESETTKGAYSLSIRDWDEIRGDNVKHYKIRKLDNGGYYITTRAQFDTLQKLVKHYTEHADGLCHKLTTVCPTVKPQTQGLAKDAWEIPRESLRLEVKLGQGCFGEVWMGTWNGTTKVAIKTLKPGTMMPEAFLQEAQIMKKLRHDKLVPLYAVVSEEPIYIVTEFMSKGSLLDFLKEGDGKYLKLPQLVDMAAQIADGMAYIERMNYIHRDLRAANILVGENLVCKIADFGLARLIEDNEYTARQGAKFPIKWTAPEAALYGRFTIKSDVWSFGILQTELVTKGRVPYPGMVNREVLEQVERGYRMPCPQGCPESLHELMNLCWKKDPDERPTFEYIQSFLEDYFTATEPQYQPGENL
UniProt P07378: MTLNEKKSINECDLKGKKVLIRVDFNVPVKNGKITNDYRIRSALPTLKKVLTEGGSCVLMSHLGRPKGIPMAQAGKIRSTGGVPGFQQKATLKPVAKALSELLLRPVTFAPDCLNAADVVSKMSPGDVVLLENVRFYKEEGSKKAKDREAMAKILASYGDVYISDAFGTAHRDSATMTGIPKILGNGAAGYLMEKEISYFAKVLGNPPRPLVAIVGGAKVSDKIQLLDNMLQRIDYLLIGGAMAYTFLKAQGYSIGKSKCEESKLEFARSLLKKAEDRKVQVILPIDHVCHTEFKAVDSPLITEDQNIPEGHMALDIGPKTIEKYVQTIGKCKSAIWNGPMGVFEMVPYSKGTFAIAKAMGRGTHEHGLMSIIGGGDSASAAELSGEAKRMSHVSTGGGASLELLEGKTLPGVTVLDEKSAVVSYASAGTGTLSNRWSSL

molecular target: Tyrosine-protein kinase Yes (Homo sapiens) (UniProt P07947); experiment: qHTS for small molecule inhibitors of Yes1 kinase: Primary Screen (AID 686947); details: Yes1 kinase biochemical qHTS inhibition; activity change, negative = inhibition: at 76.9 µM (top of the series); further: nearly all actives have a fitted effect of over 60% in size;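 on activity change, negative = inhibition: plate controls were DMSO with enzyme for no effect and no-enzyme DMSO wells for full effect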
Method in brief: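 Yes1 (4 nM) preincubated 20 min with compound, then 60 min room-temperature reaction with 0.1 mM ATP and 0.3 mg/mL poly(E4Y) in pH 7.5 Tris, 10 mM MgCl2. ADP measured by ADP-Glo luminescence, normalised to enzyme/no-enzyme controls.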
Potency means the concentration at half of the fitted maximal effect.

Compound	Potency	activity change, negative = inhibition
c1cnn2ncc(-c3ccnc(Nc4ccc5c(c4)OCCO5)n3)c2c1	inconclusive: 1.84 µM [inhibitor, full curve, poor fit]	
CC1=C(C(=O)Nc2ccc3[nH]ncc3c2)C(c2ccc(F)cc2)N=C(c2ccc(C(F)(F)F)nc2)N1 (stereo unspecified)	inconclusive: 16.4 µM [inhibitor, partial curve]	
Cc1cc(-c2ccccn2)cc(C)c1C=Cc1cncc(-c2nn[nH]n2)c1	active: 2.07 µM	
COC(=O)Nc1nc2ccc(Oc3ccc(NC(=O)Nc4cc(C(F)(F)F)ccc4F)cc3)cc2s1		inactive: -13.5%
Fc1ccc(-c2ncn(C3CCNCC3)c2-c2ccnc(Oc3ccc4c(c3)OCO4)n2)cc1	inconclusive: 41.2 µM [inhibitor, single point]	
COC(=O)Nc1nc2ccc(Oc3cccc(NC(=O)Nc4cc(C(F)(F)F)ccc4F)c3)cc2[nH]1	active: 11.6 µM	
Cc1ccc2[nH]c(O)c(N=Nc3ccc(S(N)(=O)=O)cc3)c2c1	inconclusive: 0.519 µM [inhibitor, full curve, poor fit]	
FC(F)(F)c1ccc(-c2nn3ncccc3c2-c2ccnc(Nc3ccc4c(c3)OCCO4)n2)cc1	active: 2.6 µM	
O=S(=O)(CCNCc1ccc(-c2ccc3ncnc(Nc4ccc(OCc5cccc(F)c5)c(Cl)c4)c3c2)o1)c1ccccc1	inconclusive: 6.54 µM [inhibitor, full curve]	
Cc1ccc(C(=O)NC2CCC2)cc1-c1ccc(C(=O)NCC2CC2)cc1	inconclusive: 36.8 µM [inhibitor, single point]	

molecular target: Phosphoglycerate kinase, glycosomal (Trypanosoma brucei brucei) (UniProt P07378); experiment: qHTS for inhibitors of Phosphogylcerate Kinase: Hit Validation Screen (AID 686980); details: TbPGK coupled GAPDH assay, Kinase-Glo luminescence; series mostly up to 57.5 µM; activity change, negative = inhibition: at the top concentration; on potency: nearly all actives have a fitted effect of over 65% in size
Method in brief: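 Luminescent ATP detection (Kinase-Glo Plus) follows a 60-minute room-temperature incubation, with wells lacking PGK as controls. Buffer: 100 mM TEA (pH 7.6), 5 mM MgCl2, 0.01% Tween-20. Coupling enzyme GAPDH (100 nM final) supplies unstable 1,3-BPG in-well.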

Compound	Potency	activity change, negative = inhibition
O=Cc1coc2ccc3ccccc3c2c1=O	inconclusive: 46.1 µM [inhibitor, single point]	
CCOC(=O)c1cnc2ccc(OC(F)(F)F)cc2c1Nc1ccccc1C(=O)O		inactive: -17.4%
Cc1cncn1CCc1nc2c3ccccc3nc(SCC(=O)Nc3ccc(F)cc3)n2n1		inactive: -14.2%
O=C(NCc1nc2ccccc2[nH]1)c1ccc(S(=O)(=O)N2CCOCC2)cc1		inactive: -3.32%
Nc1c(C(=O)O)cnc2c(-c3ccc(Cl)cc3)cnn12	inconclusive: 29.1 µM [inhibitor, partial curve]	
Cc1nnc(SCC2=C(C(=O)O)N3C(=O)C(NC(=O)Cn4nc(C(F)F)cc4C)C3SC2)s1 (stereo unspecified)	inconclusive: 29.1 µM [inhibitor, partial curve]	
O=C(COc1ccccc1)NCC(c1cccs1)S(=O)(=O)c1ccc(Cl)cc1 (stereo unspecified)	inconclusive: 14.6 µM [inhibitor, partial curve]	
CCOc1ccc2nc(NC(=O)c3ccoc3C)sc2c1	active: 6.51 µM	
COc1ccccc1NS(=O)(=O)c1cc(NC(=O)c2ccc3c(c2)OCCO3)ccc1C		inactive: 2.32%
CSc1nc(N(C)CCO)c2sc3nc(-c4ccco4)c4c(c3c2n1)CCC4		inactive: -18.6%
CNC(=O)C1CCC(Cn2c(=O)c3sccc3n(CC(=O)N3CCC(C)CC3)c2=O)CC1 (stereo unspecified)		inactive: -17%
CCOC(=O)c1cc(-c2ccc(OC)cc2)nn1-c1ccccc1C(=O)O	inconclusive: 36.6 µM [inhibitor, single point]	
CCC1CCc2c(sc(NC(=O)C3CC=CCC3C(=O)O)c2C#N)C1 (stereo unspecified)	inconclusive: 32.6 µM [inhibitor, partial curve]	
CC(CNc1ccccc1O)C(=O)O (stereo unspecified)	inconclusive: 6.51 µM [inhibitor, full curve]	
N/C(=N\OC(=O)c1ccc2ccccc2c1)c1ccccn1	inconclusive: 8.19 µM [inhibitor, full curve]	
C=C(C)C(=O)Nc1cccc(C2=NOC3(C2)C[C@@H](C(N)=O)N(C(=O)c2cc([N+](=O)[O-])cc([N+](=O)[O-])c2)C3)c1 (stereo partly specified)	inconclusive: 5.17 µM [inhibitor, full curve]	
CN(C)c1ccc(-c2nc3ccccn3c2/N=C/c2ccc(Br)cc2)cc1	inconclusive: 32.6 µM [inhibitor, single point]	
C=C(C)C(=O)Nc1cccc(C2=NOC3(C2)C[C@@H](C(N)=O)N(C(=O)CC(c2ccccc2)c2ccccc2)C3)c1 (stereo partly specified)	active: 3.26 µM	
COc1cccc(CNCCSc2nnnn2C)c1OCc1ccc(Cl)cc1Cl		inactive: -0.11%
CCCCCC(=O)Nc1cc(S(=O)(=O)O)cc2cc(S(=O)(=O)O)cc(O)c12	active: 0.231 µM	
CNC(=O)C1CCC(Cn2c(=O)c3sccc3n(CC(=O)Nc3cc(C)cc(C)c3)c2=O)CC1 (stereo unspecified)		inactive: -27.7%

Quoted at random: two records from the list.
Compound	Potency	activity change, negative = inhibition
CCC1CCc2c(sc(NC(=O)C3CC=CCC3C(=O)O)c2C#N)C1 (stereo unspecified)	inconclusive: 32.6 µM [inhibitor, partial curve]	
Cc1nnc(SCC2=C(C(=O)O)N3C(=O)C(NC(=O)Cn4nc(C(F)F)cc4C)C3SC2)s1 (stereo unspecified)	inconclusive: 29.1 µM [inhibitor, partial curve]	
